Results from PMC6224402.
Results are given in words; binding and its absence hold for the method and conditions named. Binding seen in cells or lysates may run through a third protein. Some binding calls cover weakened binding; strength is not graded here. For part of these data: Tags and fused reporters may be left off the sequences shown.

The chains behind the UniProt entries cited, without tags or fusion partners. Where a name states a change or a piece, a line headed by the entry shows the natural chain unless it says otherwise.
UniProt Q9P1W9: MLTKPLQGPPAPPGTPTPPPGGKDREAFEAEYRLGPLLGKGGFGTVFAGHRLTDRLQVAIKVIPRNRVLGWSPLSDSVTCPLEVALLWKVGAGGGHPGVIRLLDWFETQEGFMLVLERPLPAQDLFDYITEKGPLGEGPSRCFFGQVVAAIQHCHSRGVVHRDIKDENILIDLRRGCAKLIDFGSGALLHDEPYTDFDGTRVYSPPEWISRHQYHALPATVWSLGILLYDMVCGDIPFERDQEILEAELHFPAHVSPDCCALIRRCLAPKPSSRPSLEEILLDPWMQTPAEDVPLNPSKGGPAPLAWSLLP

Legend:
[1] = target: T1, HA-tagged HK2 (Hexokinase-II) (human) (UniProt P52789); assay: co-IP; HEK293T cells overexpressing tagged proteins; IP buffer lysate; immunoprecipitation with anti-HA or anti-Flag antibody, immunoblotting
T1 sequence: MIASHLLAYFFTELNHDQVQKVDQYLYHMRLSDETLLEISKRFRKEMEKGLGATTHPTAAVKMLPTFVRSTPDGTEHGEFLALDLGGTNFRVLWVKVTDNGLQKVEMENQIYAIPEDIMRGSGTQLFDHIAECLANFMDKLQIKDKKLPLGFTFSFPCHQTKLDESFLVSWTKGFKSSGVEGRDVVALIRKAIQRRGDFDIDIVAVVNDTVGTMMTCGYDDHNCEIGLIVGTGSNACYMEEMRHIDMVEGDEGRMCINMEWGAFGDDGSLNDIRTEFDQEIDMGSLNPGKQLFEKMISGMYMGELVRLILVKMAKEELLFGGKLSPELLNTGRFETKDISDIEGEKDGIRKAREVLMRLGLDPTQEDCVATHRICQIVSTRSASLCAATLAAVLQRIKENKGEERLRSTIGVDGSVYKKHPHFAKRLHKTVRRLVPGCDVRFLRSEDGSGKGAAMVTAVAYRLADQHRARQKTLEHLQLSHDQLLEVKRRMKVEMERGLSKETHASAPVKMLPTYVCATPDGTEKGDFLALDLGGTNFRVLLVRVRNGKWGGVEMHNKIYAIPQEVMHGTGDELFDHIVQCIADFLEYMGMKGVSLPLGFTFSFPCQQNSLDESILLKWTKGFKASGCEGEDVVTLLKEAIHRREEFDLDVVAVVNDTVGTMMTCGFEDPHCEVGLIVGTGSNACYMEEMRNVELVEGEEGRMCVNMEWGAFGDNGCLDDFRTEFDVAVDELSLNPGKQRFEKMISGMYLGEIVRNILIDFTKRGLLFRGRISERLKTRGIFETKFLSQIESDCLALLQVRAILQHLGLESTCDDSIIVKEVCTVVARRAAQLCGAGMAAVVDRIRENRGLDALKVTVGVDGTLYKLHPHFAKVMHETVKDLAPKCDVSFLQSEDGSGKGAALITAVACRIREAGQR

[2] = target: T2, endogenous HK2 (human (endogenous in MCF-7)) (UniProt P52789); assay: co-IP; endogenous proteins, MCF-7 cell lysate; immunoprecipitation with anti-PIM2 or anti-HK2 antibody, immunoblotting
T2 sequence: T1 sequence

Row | Substance | binding [1] | binding [2]
1 | Flag-tagged PIM2 (Proviral Insertion in Murine Lymphomas 2) (from UniProt Q9P1W9 1-311) (enzyme) | binds | –
2 | endogenous PIM2 (from UniProt Q9P1W9 1-311) (enzyme) | – | binds
3 | GFP-tagged PIM2 (33–286) (from UniProt Q9P1W9 33-286) (domain or fragment) | binds | –
